# Measurements taken from the supplement of paper PMC5949888.
# Most values lie at the floor of the assay. Slopes are relative: functional sequences can read slightly below zero.
# System: Saccharomyces cerevisiae PS128 hsf1 delta, HSF1(1-493) fusion
# Assay: growth estimate (transactivation domain function in HSF1 fusion, heat-shock survival) (a.u. (slope of normalised read count over time)); higher = stronger growth at 37°C, i.e. more transactivation activity
# Conditions: library: random library
row,Substance,growth estimate
1,ALPSIGLLADRRTGYAGRLS,< -0.25
2,SWLSMVNVR,< -0.25
3,DRPVLGGSRLLLAHALVGSR,< -0.25
4,HPARWRSG,< -0.25
5,SQLERVNHVLRRLRHALSEC,< -0.25
6,SNIKWYWVPRQLVHYMI,< -0.25
7,GSQSTERGP,< -0.25
8,YLNSLFTLTV,< -0.25
9,RNRQSSNQGVSTNPCLGVHL,< -0.25
10,FLHITWSAIFRRR,< -0.25
11,GQENAGQKPGP,< -0.25
12,ATERRNCMVYMDPETTSVAT,< -0.25
13,PGCG,< -0.25
14,VTANGGIVESIPDISVPDRA,< -0.25
15,KSASLGRCVHESVRLLSLDG,< -0.25
16,KRS,-0.231
17,KASCCHPAVFARERLRICIM,< -0.25
18,VRVLCR,< -0.25
19,PHVYN,< -0.25
20,VRRCHGDHPGQPVLYVTSPI,< -0.25
21,RIQVRT,< -0.25
22,DVTSPC,< -0.25
23,LTRTVKKHLPFIAGPERDVA,< -0.25
24,VGPFATVSCERGRPCPGYTM,< -0.25
25,ASMETFVEP,< -0.25

# Quoted from the listing.
# growth estimate, ASMETFVEP reads < -0.25
# growth estimate, VRRCHGDHPGQPVLYVTSPI reads < -0.25
# growth estimate, ATERRNCMVYMDPETTSVAT reads < -0.25

# Following part:

row,Substance,growth estimate
1,LSPSRYRKLLHAAKGRSYPE,< -0.25
2,RLWFLGVRSRRLGAVWLRAC,< -0.25
3,RVPLGHIVVRFLTGSCKGRW,< -0.25
4,HSCGRASHVRTLVSQLLGPV,< -0.25
5,SWGYRYPTKTRIGLQLEWIG,< -0.25
6,DHVAQGYVSACFN,< -0.25
7,VGRGAISEGRCTGVIRAPMA,< -0.25
8,GHSQMKFGCTTGGAPGLIGR,< -0.25
9,CRFVRHRI,< -0.25
10,HEADLLCGRDSRYRGLQEQQ,< -0.25
11,RSQDRLYGCAQQRRLGVPTQ,< -0.25
12,LPVITLRNPQMRASLNKPLS,< -0.25
13,VGVWPRDSVADSPRAGLISS,< -0.25
14,RHNLSEIGNGSSRTESAKR,< -0.25
15,AIRGVLSKRVFSR,< -0.251
16,ANISFGRLRSRPWRAYSNPA,< -0.25
17,VLKTRQTMRIDNSFHCFPYS,< -0.25
18,RLSFTQTARGPAGHLPMQPR,< -0.25
19,AAATLGCRLNTK,-0.04
20,RPLLVQDSTRAWCFEGLTLH,< -0.25
21,MVISLLGVNFSSEASEPSRV,< -0.25
22,GSLGTHGLPELCHSLLVPGD,< -0.25
23,VVLDSCSTDDNWGPADEV,< -0.25
24,MSSRLSRFPEPPSERQPGPG,< -0.25
25,INVDRC,< -0.25

row,Substance,growth estimate
1,LKGHGPI,< -0.25
2,SLQTTARMNRP,< -0.25
3,NIGKRLTSGSIAVLFRSVMN,< -0.25
4,FRLF,< -0.25
5,SSSFRAEDTANRCCPDIRAS,< -0.25
6,TVEAPQCNDYDEVARAYLGR,< -0.25
7,SESASDFAL,< -0.25
8,RVG,< -0.25
9,ELGD,< -0.25
10,SCGTRRAACIVMVSVGWYTQ,< -0.25
11,PHERGKKSDGIMP,< -0.25
12,RDLQRVSNANLFLAKSDTGE,< -0.25
13,TRL,< -0.25
14,AVYYSQDSGA,< -0.25
15,QKITRFSARGLAKAGGRFTT,< -0.25
16,AALSSLRLQSTHMR,< -0.25
17,KEAFTFAHSHKPLLRFGMVR,< -0.25
18,RPIHIMFSANLDLPPGARGT,< -0.25
19,VCGNK,< -0.25
20,SLGT,< -0.25
21,SGHYAGEL,< -0.25
22,DPATGARRQQMRVRWELPPH,-0.229
23,PTCFHTSTGISTGIDYGNCS,< -0.25
24,VRQLFGTRISL,< -0.25
25,SRLSINLHTRCLERKGITDA,< -0.25

row,Substance,growth estimate
1,DGMACASCDNHPNRMNESMP,< -0.25
2,SSV,< -0.25
3,GSDVSLVAPLAGPAIVSCMT,< -0.25
4,IDSNRYTSRR,< -0.25
5,TVSEDQGCIDIRALPRGWRL,< -0.25
6,VKRAKTDPNAGPP,< -0.25
7,PLRMEHSIVVWLNFFSTIPA,< -0.25
8,QHLFPRV,< -0.25
9,PLLHQESHRVCPGHTNSLDR,-0.228
10,SCCVAQEITDRQPPIVGIVV,< -0.25
11,AVGAKRGRTSFCAHATEVS,< -0.25
12,IFDRDPEAKSDAQLDHSGIK,< -0.25
13,VCLTF,< -0.25
14,LPGSPRTQPAFALQVELPTI,< -0.25
15,PAVM,< -0.25
16,GNLKFELAASEQKGVLASQK,< -0.25
17,SRYLR,< -0.25
18,GMC,< -0.25
19,KFICAWNQSSAAPFLREGTP,< -0.25
20,TVRKNRCRHSLRAKSVRSAR,< -0.25
21,QIDVPSRVRTQSPGEVQWAA,< -0.25
22,LTELCLVRQRFS,< -0.25
23,LASWGIVIVINETRLRPLST,< -0.25
